From article PMC2732903

Sequences of proteins named here, by UniProt entry; tags and fusion partners are left off. A change or cut given only in a name is not applied to a line headed by its entry.
UniProt Q13472: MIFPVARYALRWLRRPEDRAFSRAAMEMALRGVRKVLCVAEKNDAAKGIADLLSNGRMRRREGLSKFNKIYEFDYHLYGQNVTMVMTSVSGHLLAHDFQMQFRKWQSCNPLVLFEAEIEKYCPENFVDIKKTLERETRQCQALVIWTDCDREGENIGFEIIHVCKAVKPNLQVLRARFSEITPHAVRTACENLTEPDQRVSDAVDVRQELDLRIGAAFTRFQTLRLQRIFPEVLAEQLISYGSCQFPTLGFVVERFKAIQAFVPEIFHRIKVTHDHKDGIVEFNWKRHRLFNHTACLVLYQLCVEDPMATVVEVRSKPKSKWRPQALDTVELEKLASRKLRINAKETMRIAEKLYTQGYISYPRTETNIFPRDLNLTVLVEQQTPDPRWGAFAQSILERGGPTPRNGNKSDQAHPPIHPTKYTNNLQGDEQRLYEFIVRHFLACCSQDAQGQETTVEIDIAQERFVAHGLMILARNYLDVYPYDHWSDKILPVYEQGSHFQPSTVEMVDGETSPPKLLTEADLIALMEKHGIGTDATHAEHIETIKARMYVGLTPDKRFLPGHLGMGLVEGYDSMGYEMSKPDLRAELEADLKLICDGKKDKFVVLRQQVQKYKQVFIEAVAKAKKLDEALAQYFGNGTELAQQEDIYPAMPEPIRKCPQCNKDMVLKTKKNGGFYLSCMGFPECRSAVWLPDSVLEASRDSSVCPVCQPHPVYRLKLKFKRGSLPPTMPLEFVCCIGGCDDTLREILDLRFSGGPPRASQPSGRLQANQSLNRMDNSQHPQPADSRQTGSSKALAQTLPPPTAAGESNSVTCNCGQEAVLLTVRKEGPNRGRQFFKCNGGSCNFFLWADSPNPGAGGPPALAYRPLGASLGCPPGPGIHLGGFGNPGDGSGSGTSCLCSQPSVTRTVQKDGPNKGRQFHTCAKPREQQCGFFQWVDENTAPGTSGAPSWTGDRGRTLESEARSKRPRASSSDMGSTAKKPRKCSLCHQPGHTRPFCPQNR
UniProt Q9NUX5: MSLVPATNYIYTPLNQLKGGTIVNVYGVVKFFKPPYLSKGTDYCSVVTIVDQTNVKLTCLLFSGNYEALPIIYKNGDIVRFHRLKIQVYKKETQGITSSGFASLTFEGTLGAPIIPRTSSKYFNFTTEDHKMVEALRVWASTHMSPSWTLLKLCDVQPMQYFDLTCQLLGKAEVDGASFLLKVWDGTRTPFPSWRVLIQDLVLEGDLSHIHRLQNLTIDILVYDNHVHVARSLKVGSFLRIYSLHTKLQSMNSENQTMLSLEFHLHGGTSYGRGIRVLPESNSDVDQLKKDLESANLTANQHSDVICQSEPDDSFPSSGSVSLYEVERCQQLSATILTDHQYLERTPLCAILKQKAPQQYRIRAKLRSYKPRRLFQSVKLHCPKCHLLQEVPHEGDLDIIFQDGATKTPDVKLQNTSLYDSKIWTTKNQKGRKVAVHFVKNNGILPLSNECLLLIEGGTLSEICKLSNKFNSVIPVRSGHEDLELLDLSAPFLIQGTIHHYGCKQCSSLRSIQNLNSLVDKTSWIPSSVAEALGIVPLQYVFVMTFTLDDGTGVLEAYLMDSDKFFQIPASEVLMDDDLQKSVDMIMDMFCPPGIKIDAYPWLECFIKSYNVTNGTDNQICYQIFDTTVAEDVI

How the values were obtained:
[1] = biological target: Topoisomerase IIIα (Topo III) (human) (UniProt Q13472); experiment: competition with a labelled probe; settings: unlabelled competitor vs 32P-S310, 21G or 24C, 50 mM HEPES pH 7.9, 100 mM NaCl, 0.1 mM EDTA, 4% sucrose, 2% glycerol, 0.1 mg/mL BSA, 0.02% bromophenol blue, 20 nM probe, room temperature 30 min, 1% agarose, 0.5X TBE, recombinant protein, label: 32P when used as probe
[2] = biological target: Topoisomerase IIIα (Topo III) (human) (UniProt Q13472); experiment: EMSA; settings: 50 mM HEPES pH 7.9, 100 mM NaCl, 0.1 mM EDTA, 4% sucrose, 2% glycerol, 0.1 mg/mL BSA, 0.02% bromophenol blue, 20 nM probe, room temperature 30 min, 1% agarose, 0.5X TBE, recombinant protein, folded or branched DNA
hPOT1 (human) = hPOT1 (human) (UniProt Q9NUX5); experiment: EMSA; settings: with telomestatin (telomestatin IC50 100 nM); 50 mM HEPES pH 7.9, 100 mM NaCl, 0.1 mM EDTA, 4% sucrose, 2% glycerol, 0.1 mg/mL BSA, 0.02% bromophenol blue, 20 nM probe, room temperature 30 min; 1% agarose, 0.5X TBE; recombinant protein; label: 32P; folded or branched DNA

GGCTTACGGTTAGCGTTAGGG [21G mu3 (21Gmu)]
binding result ([1]; IC50 lower than G4 oligos (4.3-10.1-fold range), single-stranded DNA): binds

GGGTTAGGGTTAGGGTTAGGG [21G]
binding result ([2]; with telomestatin (telomestatin IC50 300 nM), label: 32P when used as probe, unlabelled as competitor): binds more weakly
binding result ([1]; IC50 higher than non-G4 oligos (4.3-10.1-fold range), folded or branched DNA): binds more weakly

TTAGGGTTAGGGTTAGGGTTAGGGTT [Wt26]
binding result ([2]; 0.1 uM telomestatin: no complex (telomestatin IC50 60 nM), label: 32P): no binding
binding result (hPOT1 (human)): binds more weakly

Construct, isoform or probe ends are uncertain for at least one entry. For some assays here: No signal at the amounts used counts as a negative. A weaker result is weaker than the reference pair of the same experiment. For some assays here: At least one verdict rests on a figure or table, not on a statement of the authors.
